Measurements from patent US20110098326A1, “2-FLUOROTHIAZOLE DERIVATIVES USEFUL AS IMAGING AGENTS; METHODS OF SYNTHESIS, AND METHODS OF USE” (priority 2009, published 2011).
Some entries share one result that the patent states for a list of compounds.

Sequences of proteins named here, by UniProt entry; tags and fusion partners are left off. Residues count along the entry.
UniProt P41594, 21-1212: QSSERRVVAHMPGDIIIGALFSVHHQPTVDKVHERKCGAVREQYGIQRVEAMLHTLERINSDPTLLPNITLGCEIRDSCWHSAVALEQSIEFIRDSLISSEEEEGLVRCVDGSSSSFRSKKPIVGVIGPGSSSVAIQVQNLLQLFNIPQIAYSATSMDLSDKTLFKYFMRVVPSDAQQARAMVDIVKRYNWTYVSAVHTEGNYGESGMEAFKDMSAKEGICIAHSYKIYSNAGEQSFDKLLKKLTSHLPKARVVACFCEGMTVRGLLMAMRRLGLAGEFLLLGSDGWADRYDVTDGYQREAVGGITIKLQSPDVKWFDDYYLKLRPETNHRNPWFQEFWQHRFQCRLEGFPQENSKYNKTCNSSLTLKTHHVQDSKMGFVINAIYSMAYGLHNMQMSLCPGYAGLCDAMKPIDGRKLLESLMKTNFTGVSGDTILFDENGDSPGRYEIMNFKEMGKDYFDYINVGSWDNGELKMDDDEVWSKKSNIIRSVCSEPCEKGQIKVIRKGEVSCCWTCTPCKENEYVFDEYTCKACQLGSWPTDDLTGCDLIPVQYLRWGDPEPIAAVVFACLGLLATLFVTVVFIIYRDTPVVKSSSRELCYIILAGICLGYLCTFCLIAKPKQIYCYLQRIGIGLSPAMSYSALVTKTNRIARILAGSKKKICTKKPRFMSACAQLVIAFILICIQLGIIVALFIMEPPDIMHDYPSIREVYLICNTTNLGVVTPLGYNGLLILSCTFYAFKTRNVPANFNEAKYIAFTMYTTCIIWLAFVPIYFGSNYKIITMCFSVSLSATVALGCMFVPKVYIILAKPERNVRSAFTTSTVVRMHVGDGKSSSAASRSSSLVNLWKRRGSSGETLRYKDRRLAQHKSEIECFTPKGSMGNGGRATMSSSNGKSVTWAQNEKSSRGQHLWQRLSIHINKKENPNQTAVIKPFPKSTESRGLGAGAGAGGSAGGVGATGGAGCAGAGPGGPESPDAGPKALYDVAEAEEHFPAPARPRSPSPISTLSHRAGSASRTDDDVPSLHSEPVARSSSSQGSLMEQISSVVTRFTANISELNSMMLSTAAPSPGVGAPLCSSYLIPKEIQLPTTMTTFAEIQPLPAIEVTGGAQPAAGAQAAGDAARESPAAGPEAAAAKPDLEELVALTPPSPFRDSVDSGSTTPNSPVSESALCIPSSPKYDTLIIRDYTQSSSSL

Biological target: T1, mGluR5 receptors (Homo sapiens, UniProt P41594)
T1 construct: expressed in transfected cells; host or cells: transiently or stably transfected cell lines (e.g., HEK293, COS, CHO, NIH3T3)
Assay: In vitro binding to glutamate receptors ([^3H]MPEP displacement, membranes of transfected cell lines)
Procedure: The assay buffer is Standard Binding Buffer (50 mM Tris-HCl, 10 mM MgCl2, 0.1 mM EDTA, pH 7.4) and the membrane fraction source is transiently or stably transfected cell lines (e.g., HEK293, COS, CHO, NIH3T3)
Aliquots (50 μL) of radioligand are dispensed into the wells of a 96-well plate containing 100 μl of Standard Binding Buffer. Then, duplicate 50-μL aliquots of the test and reference compound dilutions are added.
The 250-4, reactions are incubated at room temperature and shielded from light (to prevent photolysis of light-sensitive ligands) for 1 hour, then harvested by rapid filtration onto Whatman GF/B glass fiber filters pre-soaked with 0.3% polyethyleneimine using a 96-well Brandel harvester. Four rapid 500-μL washes are performed with chilled Standard Binding Buffer to reduce non-specific binding. Filters are placed in 6-mL scintillation tubes and allowed to dry overnight. The next day, 4 mL of EcoScint scintillation cocktail (National Diagnostics) are added to each tube. The tubes are capped, labeled, and counted by liquid scintillation counting. […] The filter mats are dried, then scintillant is melted onto the filters and the radioactivity retained on the filters is counted in a Microbeta scintillation counter.
Raw data (dpm) representing total radioligand binding (i.e., specific+non-specific binding) are plotted as a function of the logarithm of the molar concentration of the competitor (i.e., test or reference compound).
Ki=IC50/(1+[ligand]/KD) (Eqn. 2)
where [ligand] equals the assay radioligand concentration and KD equals the affinity constant of the radioligand for the target receptor.

| Compound | affinity for mGluR5 receptors (in words) | selectivity for mGluR5 receptors (in words) |
| --- | --- | --- |
| Fc1nc(C#Cc2ccccc2)cs1 [Compound 12, 2-fluoro-4-(phenylethynyl)thiazole] | high affinity | high selectivity |
| N#Cc1cccc(C#Cc2csc(F)n2)c1 [Compound 13, (5-((2-fluorothiazol-4-yl)ethynyl)benzonitrile)] | high affinity | high selectivity |
| COc1cccc(C#Cc2csc(F)n2)c1 [Compound 15] | high affinity | high selectivity |
| N#CCc1cccc(C#Cc2csc(F)n2)c1 [Compound 16] | high affinity | high selectivity |
